No constants are given. Whether binding was seen depends on the method and setting. Binding seen in cells or lysates may run through a third protein. A yes stands for co-enrichment or nearness to the bait. Other partners may have been found. For part of these data: A no says only that the protein was not detected with the bait. Tags and fused reporters may be left off the sequences shown.
T1: One-STrEP-tag:ATSWC4 fusion protein (Arabidopsis thaliana) (UniProt Q8VZL6)
T1 sequence: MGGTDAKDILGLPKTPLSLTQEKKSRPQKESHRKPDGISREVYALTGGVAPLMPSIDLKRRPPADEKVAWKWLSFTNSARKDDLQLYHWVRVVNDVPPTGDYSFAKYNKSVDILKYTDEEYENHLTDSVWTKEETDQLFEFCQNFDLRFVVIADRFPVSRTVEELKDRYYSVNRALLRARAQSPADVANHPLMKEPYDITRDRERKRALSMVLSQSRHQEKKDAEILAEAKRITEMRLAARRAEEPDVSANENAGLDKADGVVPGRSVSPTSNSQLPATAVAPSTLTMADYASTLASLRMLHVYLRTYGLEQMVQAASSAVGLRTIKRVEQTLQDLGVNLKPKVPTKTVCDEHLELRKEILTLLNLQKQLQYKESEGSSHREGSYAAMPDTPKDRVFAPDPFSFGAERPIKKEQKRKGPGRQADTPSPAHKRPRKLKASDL

T2: One-STrEP-tag:ATARP4 fusion protein (Arabidopsis thaliana) (UniProt Q84M92)
T2 sequence: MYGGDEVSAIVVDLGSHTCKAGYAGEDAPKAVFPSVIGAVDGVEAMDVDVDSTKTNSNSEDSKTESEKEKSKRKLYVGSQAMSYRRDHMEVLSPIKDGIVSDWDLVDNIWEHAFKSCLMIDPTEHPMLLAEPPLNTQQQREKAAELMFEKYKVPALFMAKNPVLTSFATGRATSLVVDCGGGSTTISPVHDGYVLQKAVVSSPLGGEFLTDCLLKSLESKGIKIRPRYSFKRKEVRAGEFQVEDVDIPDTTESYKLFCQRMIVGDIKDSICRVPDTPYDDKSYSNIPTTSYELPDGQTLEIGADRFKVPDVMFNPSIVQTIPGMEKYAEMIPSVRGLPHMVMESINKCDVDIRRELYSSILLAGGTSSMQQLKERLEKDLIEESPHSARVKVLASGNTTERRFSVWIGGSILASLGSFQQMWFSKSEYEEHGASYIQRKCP


Assays:
[1] = molecular target: T1, One-STrEP-tag:ATSWC4 fusion protein (Arabidopsis thaliana); experiment: affinity purification with mass spectrometry; One-STrEP-tagged bait stably expressed in Arabidopsis T87 suspension cells; extract in buffer H or L loaded on Strep-Tactin Superflow resin, seven washes (100 mM Tris-HCl pH 8.0, 150 mM NaCl), eluted with 2.5 mM desthiobiotin; MS/MS (Orbitrap Velos); hits of controls with no bait or Strep-GFP removed
[2] = molecular target: T2, One-STrEP-tag:ATARP4 fusion protein (Arabidopsis thaliana); experiment: as above

Row | Binder | binding [1] | binding [2]
1 | SWI3D (protein, UniProt Q8VY05 1-985) MEEKRRDSAGTLAFAGSSGDSPASEPMPAPRRRGGGLKRKANALGGSNFFSSAPSKRMLTREKAMLASFSPVHNGPLTRARQAPSIMPSAADGVKSEVLNVAVGADGEKPKEEEERNKAIREWEALEAKIEADFEAIRSRDSNVHVVPNHCGWFSWEKIHPLEERSLPSFFNGKLEGRTSEVYREIRNWIMGKFHSNPNIQIELKDLTELEVGDSEAKQEVMEFLDYWGLINFHPFPPTDTGSTASDHDDLGDKESLLNSLYRFQVDEACPPLVHKPRFTAQATPSGLFPDPMAADELLKQEGPAVEYHCNSCSADCSRKRYHCPKQADFDLCTECFNSGKFSSDMSSSDFILMEPAEAPGVGSGKWTDQETLLLLEALEIFKENWNEIAEHVATKTKAQCMLHFLQMPIEDAFLDQIDYKDPISKDTTDLAVSKDDNSVLKDAPEEAENKKRVDEDETMKEVPEPEDGNEEKVSQESSKPGDASEETNEMEAEQKTPKLETAIEERCKDEADENIALKALTEAFEDVGHSSTPEASFSFADLGNPVMGLAAFLVRLAGSDVATASARASIKSLHSNSGMLLATRHCYILEDPPDNKKDPTKSKSCSADAEGNDDNSHKDDQPEEKSKKAEEVSLNSDDREMPDTDTGKETQDSVSEEKQPGSRTENSTTKLDAVQEKRSSKPVTTDNSEKPVDIICPSQDKCSGKELQEPLKDGNKLSSENKDASQSTVSQSAADASQPEASRDVEMKDTLQSEKDPEDVVKTVGEKVQLAKEEGANDVLSTPDKSVSQQPIGSASAPENGTAGGNPNIEGKKEKDICEGTKDKYNIEKLKRAAISAISAAAVKAKNLAKQEEDQIRQLSGSLIEKQLHKLEAKLSIFNEAESLTMRVREQLERSRQRLYHERAQIIAARLGVPPSMSSKASLPTNRIAANFANVAQRPPMGMAFPRPPMPRPPGFPVPGSFVAATTMTGSSDPSPGSDNVSSV | no binding | binds
2 | HAM1 (protein, UniProt Q9FLF7 1-445) MGSSADTETAMIIATPASNHNNPATNGGDANQNHTSGAILALTNSESDASKKRRMGVLPLEVGTRVMCQWRDGKYHPVKVIERRKNYNGGHNDYEYYVHYTEFNRRLDEWIKLEQLDLDSVECALDEKVEDKVTSLKMTRHQKRKIDETHVEGHEELDAASLREHEEFTKVKNIATIELGKYEIETWYFSPFPPEYNDCVKLFFCEFCLSFMKRKEQLQRHMRKCDLKHPPGDEIYRSSTLSMFEVDGKKNKVYAQNLCYLAKLFLDHKTLYYDVDLFLFYILCECDDRGCHMVGYFSKEKHSEEAYNLACILTLPPYQRKGYGKFLIAFSYELSKKEGKVGTPERPLSDLGLVSYRGYWTRILLDILKKHKGNISIKELSDMTAIKAEDILSTLQSLELIQYRKGQHVICADPKVLDRHLKAAGRGGLDVDVSKMIWTPYKEQS | binds | binds
3 | ING2 (protein, UniProt B3H615 1-262) MAIARTGVYVDDYLEYASTFPAELQRLLNTVRELDERSQSLINQTRQQTKYCLGLASQSSKKGNGNHYNNGGLDEEETIEKMRKEIESSQENALSLCTEKVLLARQAYDLIDSHVKRLDEDLNNFAEDLKQEGKIPPDEPSVLPPLPIVPKAEKRKSFYGTPQPKKIDYRDRDWDRDRDFELMPPPGSNRKDLMPIEEQPIDPNEPTYCVCHQVSFGDMIACDNENCQGGEWFHYTCVGLTPETRFKGKWYCPTCRLLPQSH | binds | binds

Source: paper PMC4358907
